According to PubChem BioAssay AID2685 (National Center for Advancing Translational Sciences (NCATS), 2010):
This is one part of the list. These are further read-outs of the screen, such as a control signal, another cell line or another target. No call is given for them. Most of these compounds were active or inconclusive in the main read-out, so they are no random draw. Words in brackets tell the shape of the fitted curve; partial curves, single points and poor fits give uncertain potencies.

Experiment: qHTS Assay for Lipid Storage Modulators in Drosophila S3 Cells;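 as to cell number change: cells counted by Cell Tracker Red CMTPX staining in the red channel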
Settings: BODIPY lipid droplet fluorescence, 18-24 h; for cell number change: measured here: cell count max response, cells fed with added oleic acid
Summary of the method: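 Laser-scanning cytometry quantifies lipid droplet accumulation (500–530 nm total intensity; droplet/cell object ratio) in oleic acid-fed (400 uM added) Drosophila S3 cells treated with a concentration series. 20 uM Triacsin C defined 100% inhibition.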

[1] = measured here: cell number channel AC50, cells fed with added oleic acid
[2] = measured here: lipid fluorescence (Fed channel) AC50, cells fed with added oleic acid

SMILES	cell number change [%]	AC50 [1]	AC50 [2]
CC(C)CO/C(=N/S(=O)(=O)c1ccccc1)c1ccccc1	-122	29.1 µM [falling, partial curve]	
CCn1c(SCc2nc3cc(OC)c(OC)cc3c(=O)[nH]2)nnc1-c1ccncc1	5.11		0.00517 µM [rising, full curve, poor fit]
CCc1nc2ccccc2c(C(=O)O)c1C	-36.3	1.16 µM [falling, full curve]	7.31 µM [falling, partial curve]
COc1ccc(NS(=O)(=O)c2cccc(C(=O)NCC(c3ccc(F)cc3)N3CCOCC3)c2)cc1 (stereo unspecified)	-38.4	9.2 µM [falling, partial curve, poor fit]	0.82 µM [falling, single point]
COc1ccc(OC)c(-c2cc(C(F)(F)F)c3c(n2)sc2c(O)cc(=O)[nH]c23)c1	-0.617		23.1 µM [rising, single point]
CN(C)c1ccc(/C=N/NC(=O)CCc2nc3ccccc3[nH]2)cc1	-43.8	23.1 µM [falling, single point]	
Nc1ccc(C#Cc2ccc3c(=O)c4ccccc4oc3c2)cc1	-0.971		
CCn1c(=S)[nH]c2scc(-c3cccs3)c2c1=O	-9.28		29.1 µM [rising, single point]
CCCCN(CC)CCCNC(=O)c1cn(C)c2ccc(S(=O)(=O)N(C)C3CCCCC3)cc2c1=O	-6.87		6.51 µM [rising, single point]
Cc1ccc2cc(C)c(SCC(=O)Nc3ccc(S(=O)(=O)N4CCCC4)cc3)nc2c1	-24.7		13 µM [falling, partial curve, poor fit]
Cc1cccc(C)c1NC(=O)CNC(=O)c1ccc(S(=O)(=O)NCc2ccco2)cc1	8.03		
COc1cccc(-c2cc(C(F)(F)F)n3nc(C(=O)Nc4c(C)n(C)n(-c5ccccc5)c4=O)cc3n2)c1	91.1		29.1 µM [rising, single point]
Cc1ccc(C2=NCCn3nc4cc(C(F)(F)F)ccc4c32)cc1	-49.2	16.4 µM [falling, single point]	
COC(=O)c1ccc(NC(=O)Cc2ccccc2)cc1	-3.3		25.9 µM [rising, partial curve]
C=CCNc1oc(/C=C/c2ccccc2)nc1C#N	-80.8	20.6 µM [falling, partial curve]	
O=C1C=C(c2ccc(Cl)c(C(F)(F)F)c2)C[C@@H](c2ccc(Cl)cc2)C1	-27.7		7.31 µM [falling, partial curve, poor fit]
CCOc1ccc(/C=C/C(=O)NC2CCCCC2)cc1	8.03		29.1 µM [rising, single point]
CC(=O)Oc1ccc2oc(C)c(C(=O)N3CCOCC3)c2c1	10.4		0.116 µM [falling, full curve, poor fit]
COc1ccc(S(=O)(=O)N2CCCCCC2)cc1NC(=O)CN1C(=O)NC(C)(c2ccc(C)cc2)C1=O (stereo unspecified)	-35.7	25.9 µM [falling, single point]	8.2 µM [falling, partial curve]
O=C(CC(=O)Nc1ccccc1C(F)(F)F)Nc1ccccc1C(F)(F)F	27.9		
O=S(=O)(/C=C/c1ccccc1)Oc1ccccc1	8.32		6.51 µM [falling, single point]
CCc1nnc(NC(=O)CCC(=O)NCCc2ccccc2)s1	24.5		16.4 µM [rising, partial curve]

SMILES	cell number change [%]	AC50 [1]	AC50 [2]
Cc1ccccc1NC(=O)CSc1nnc(-c2ccoc2C)n1CCc1ccccc1	-7.03		
O=C(Cn1ncc2c3ccccc3n(Cc3ccccc3F)c2c1=O)NCCN1CCOCC1	12.9		
O=S(=O)(Nc1ccc2c(c1)OCCO2)c1cccs1	-82.2	32.6 µM [falling, partial curve, poor fit]	
CCOc1ccc(NC(=O)NC(=O)N(C(C)C)S(C)(=O)=O)cc1	0.528	6.51 µM [rising, single point]	
Cc1ccccc1N(Cc1cc(=O)[nH]c2ccccc12)C(=O)C(C)C	7.91		0.461 µM [falling, full curve, poor fit]
CCOC(=O)C1CCN(C(=O)COc2ccc3c(c2)OCO3)CC1	10.4		16.4 µM [rising, partial curve, poor fit]
O=C(CN(Cc1ccccc1)C(=O)CNS(=O)(=O)c1ccc(F)cc1)NCc1ccco1	-2.56		0.116 µM [rising, single point]
CC(=O)c1ccc(S(=O)(=O)N2CCN(CCOc3ccc(Br)cc3)CC2)cc1	-15.1	2.31 µM [falling, single point]	
O=[N+]([O-])c1cccc(CN2CCN(c3cccc4[nH]ccc34)CC2)c1	18.1		9.2 µM [rising, partial curve]
O=C(Nc1ccc2oc(-c3ccncc3)nc2c1)c1ccc2c(c1)OCO2	33.9	16.4 µM [rising, single point]	
CCCCNC(=O)Nc1nnc(-c2ccccc2)o1	74.6	11.6 µM [rising, partial curve]	
Cc1oc(-c2cccc(Cl)c2)nc1CS(=O)(=O)CC(=O)NCCN1CCCC1	-8.93		
Cc1ccc(SCC(=O)NCC2COc3ccccc3O2)cc1 (stereo unspecified)	-2.48		6.51 µM [falling, single point]
Cc1csc(NC(=O)CCC(=O)N(CC(=O)NC2CCCC2)Cc2ccccc2)n1	-8.12		29.1 µM [rising, single point]
O=S(=O)(c1ccc(Cl)cc1)N1CCNCC1	1.08		
CCOC(=O)c1cnn(CCOC(=O)C2CC2)c1NC(=O)C1CC1	2.65		
Cc1cc2nc(-c3ccccn3)c(-c3ccccn3)nc2cc1C	3.18		
Cc1ccc(-c2nnn(CC(=O)NC3CC4CCC3C4)n2)cc1 (stereo unspecified)			4.61 µM [rising, partial curve]
COc1ccccc1N=c1sc2ccccc2n1C	27.2		6.51 µM [falling, partial curve, poor fit]
COc1cccc(CNc2nc3nc(C)c(Cl)c(C)n3n2)c1			6.51 µM [rising, single point]
CC(C)CCNC(=O)Cc1ccc(Nc2nc(=S)[nH]c3ccccc23)cc1		0.146 µM [falling, single point]	
CCCCCC1CC(COc2ccccc2)OC1=O (stereo unspecified)	15.5		0.13 µM [rising, full curve, poor fit]

Another view of 18 compounds above:
SMILES | cell number change [%] | AC50 [1] | AC50 [2]
O=C(Cn1ncc2c3ccccc3n(Cc3ccccc3F)c2c1=O)NCCN1CCOCC1 | 12.9 |  | 
O=S(=O)(Nc1ccc2c(c1)OCCO2)c1cccs1 | -82.2 | 32.6 µM [falling, partial curve, poor fit] | 
CCOc1ccc(NC(=O)NC(=O)N(C(C)C)S(C)(=O)=O)cc1 | 0.528 | 6.51 µM [rising, single point] | 
Cc1ccccc1N(Cc1cc(=O)[nH]c2ccccc12)C(=O)C(C)C | 7.91 |  | 0.461 µM [falling, full curve, poor fit]
CCOC(=O)C1CCN(C(=O)COc2ccc3c(c2)OCO3)CC1 | 10.4 |  | 16.4 µM [rising, partial curve, poor fit]
O=C(CN(Cc1ccccc1)C(=O)CNS(=O)(=O)c1ccc(F)cc1)NCc1ccco1 | -2.56 |  | 0.116 µM [rising, single point]
CC(=O)c1ccc(S(=O)(=O)N2CCN(CCOc3ccc(Br)cc3)CC2)cc1 | -15.1 | 2.31 µM [falling, single point] | 
O=[N+]([O-])c1cccc(CN2CCN(c3cccc4[nH]ccc34)CC2)c1 | 18.1 |  | 9.2 µM [rising, partial curve]
O=C(Nc1ccc2oc(-c3ccncc3)nc2c1)c1ccc2c(c1)OCO2 | 33.9 | 16.4 µM [rising, single point] | 
CCCCNC(=O)Nc1nnc(-c2ccccc2)o1 | 74.6 | 11.6 µM [rising, partial curve] | 
Cc1oc(-c2cccc(Cl)c2)nc1CS(=O)(=O)CC(=O)NCCN1CCCC1 | -8.93 |  | 
Cc1ccc(SCC(=O)NCC2COc3ccccc3O2)cc1 (stereo unspecified) | -2.48 |  | 6.51 µM [falling, single point]
Cc1csc(NC(=O)CCC(=O)N(CC(=O)NC2CCCC2)Cc2ccccc2)n1 | -8.12 |  | 29.1 µM [rising, single point]
O=S(=O)(c1ccc(Cl)cc1)N1CCNCC1 | 1.08 |  | 
CCOC(=O)c1cnn(CCOC(=O)C2CC2)c1NC(=O)C1CC1 | 2.65 |  | 
Cc1cc2nc(-c3ccccn3)c(-c3ccccn3)nc2cc1C | 3.18 |  | 
Cc1ccc(-c2nnn(CC(=O)NC3CC4CCC3C4)n2)cc1 (stereo unspecified) |  |  | 4.61 µM [rising, partial curve]
COc1ccccc1N=c1sc2ccccc2n1C | 27.2 |  | 6.51 µM [falling, partial curve, poor fit]

Following part:

SMILES	cell number change [%]	AC50 [1]	AC50 [2]
COc1ccc(/C(O)=C2\C(=O)C(=O)N(Cc3ccco3)C2c2cc(OC)ccc2OC)cc1 (stereo unspecified)			0.146 µM [rising, full curve, poor fit]
COc1cc(C)nc(N2CCC(C(=O)NCC3CCCO3)CC2)n1 (stereo unspecified)	11.6		
CC(C)(C)C(=O)COC(=O)CNC(=O)c1ccc(Oc2ccccc2)cc1	-14.3		
Cc1cc(C)cc(OCC(=O)OCC(=O)c2c(N)n(C)c(=O)n(C)c2=O)c1	-14		25.9 µM [falling, partial curve]
O=C(O)CN1C(=O)/C(=C\c2cc(Br)ccc2OCc2ccccc2F)SC1=S	8.62		
O=C(c1ccc(S(=O)(=O)N2CCCCCC2)cc1)N1CCN(c2ccccc2)CC1	4.96		8.2 µM [rising, partial curve]
Cc1ccc2cc(CCNC(=O)c3ccc(S(=O)(=O)N4CCOCC4)cc3)c(=O)[nH]c2c1	-11.1		
Cc1ccc(C(=O)N(CCN(C)C)CC2CCCN(Cc3ccccc3F)C2)cc1C (stereo unspecified)	5.47		6.51 µM [falling, single point]
Cn1c(=O)c(=O)n(C)c2cc(N3CCCC3)c(NS(=O)(=O)c3ccc(Cl)cc3)cc21	-23.9		13 µM [falling, partial curve]
CCC(c1ccccc1)c1nnc(NC(=O)c2ccco2)s1 (stereo unspecified)	37.8	18.4 µM [rising, single point]	18.4 µM [rising, single point]
CCCn1c(=O)[nH]c(=O)c2c1nc(-c1ccc(C#N)cc1)n2CCOC	19.8		0.58 µM [rising, single point]
CC(=O)c1cccc(NC(=S)NC(=O)c2ccc(Cl)cc2)c1		3.26 µM [rising, single point]	6.51 µM [rising, single point]
Cc1cccc(-c2nc(Nc3cccc(O)c3)c3ccccc3n2)c1	-46.2	13 µM [falling, partial curve]	18.4 µM [falling, single point]
O=C(Nc1ccc(Oc2cccc(C(F)(F)F)c2)nc1)c1cccs1	-15.3		5.17 µM [falling, full curve]
CCOc1ccc(C(=O)NCCCCNC(=O)c2ccc(OCC)cc2)cc1	-7.14		29.1 µM [falling, single point]
CC(=O)Nc1ccc2nc3ccccc3nc2c1	9.81		0.461 µM [rising, single point]
Cc1c(Cl)cccc1NC(=O)Nc1ccccc1C(N)=O	-10.9	0.461 µM [falling, partial curve, poor fit]	0.411 µM [falling, single point]
COC(=O)c1ccc(CNCC(O)COc2ccc(-c3ccccc3)cc2)cc1 (stereo unspecified)	11.7		
Cc1ccc(C(C)C)c(OCC(=O)Nc2ccc3c(c2)nc(CN2CCCC2)n3C)c1	100	29.1 µM [rising, single point]	
Cc1cc(C)c2c(n1)sc1c(=O)n(Cc3ccccc3Cl)nnc12		0.58 µM [rising, partial curve]	0.731 µM [rising, partial curve]
